{"source": "PubChem BioAssay AID1508597 | Cure First, 2020", "purpose": "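Knock-downs altering ovarian cancer cell survival with or without PARP inhibitor rucaparib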 (primary screen)", "cells": "human ovarian carcinoma lines grown from tumours: OCI-P5x (papillary serous) and OCI-C5x (clear cell)", "reagent": "siRNA pool against human genes, 1.25 pmol siRNA per well", "duration": "72 h or 96 h, depending on the cell culture", "challenge": "rucaparib 20 µM (about IC30) or vehicle, present until read-out", "rucaparib or vehicle": "Vehicle", "cell line": "OCI-P5x (serous)", "read-out": "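ATP luminescence measured at 72 or 96 h according to the culture, then normalised and expressed as percent viability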", "scale": "viability, normalised: higher = more viable cells remaining", "rule for the call": "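a well counts as a hit if its normalised viability is under 80 percent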", "meaning of the calls": "active = viability under 80%; inactive = viability 80% or more", "note": "Shown is an unselected part of the about 2,100 reagents, under one of the conditions tested. 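Calls flag viability under 80% in either arm, not effects specific to rucaparib; the reference for percent is not stated.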 A reagent listed more than once was tested more than once; the source does not tell the runs apart. Not given: the 100% reference."}
{"target":"ACHE","technical replicate":"1","viability, normalised (%)":53.8,"activity call":"active"}
{"target":"ACHE","technical replicate":"2","viability, normalised (%)":50.7,"activity call":"active"}
{"target":"ACHE","technical replicate":"3","viability, normalised (%)":42.4,"activity call":"active"}
{"target":"AK5","technical replicate":"1","viability, normalised (%)":64.2,"activity call":"active"}
{"target":"AK5","technical replicate":"2","viability, normalised (%)":62.2,"activity call":"active"}
{"target":"AK5","technical replicate":"3","viability, normalised (%)":69.2,"activity call":"active"}
{"target":"PDE11A","technical replicate":"1","viability, normalised (%)":72.3,"activity call":"active"}
{"target":"PDE11A","technical replicate":"2","viability, normalised (%)":75.8,"activity call":"active"}
{"target":"PDE11A","technical replicate":"3","viability, normalised (%)":78.9,"activity call":"active"}
{"target":"RAD51C","technical replicate":"1","viability, normalised (%)":68.7,"activity call":"active"}
{"target":"RAD51C","technical replicate":"2","viability, normalised (%)":36.5,"activity call":"active"}
{"target":"RAD51C","technical replicate":"3","viability, normalised (%)":64.5,"activity call":"active"}
{"target":"NRXN3","technical replicate":"1","viability, normalised (%)":52.6,"activity call":"active"}
{"target":"NRXN3","technical replicate":"2","viability, normalised (%)":65.8,"activity call":"active"}
{"target":"NRXN3","technical replicate":"3","viability, normalised (%)":76.1,"activity call":"active"}
{"target":"HECTD3","technical replicate":"1","viability, normalised (%)":58.3,"activity call":"active"}
{"target":"HECTD3","technical replicate":"2","viability, normalised (%)":38.6,"activity call":"active"}
{"target":"HECTD3","technical replicate":"3","viability, normalised (%)":78.4,"activity call":"active"}

In a second layout: 5 of the entries above.
AK5, technical replicate 3 | viability, normalised (%) = 69.2; activity call = active
PDE11A, technical replicate 1 | viability, normalised (%) = 72.3; activity call = active
PDE11A, technical replicate 2 | viability, normalised (%) = 75.8; activity call = active
PDE11A, technical replicate 3 | viability, normalised (%) = 78.9; activity call = active
RAD51C, technical replicate 1 | viability, normalised (%) = 68.7; activity call = active

Further results follow:
{"target":"NRK","technical replicate":"1","viability, normalised (%)":83.5,"activity call":"inactive"}
{"target":"NRK","technical replicate":"2","viability, normalised (%)":69.2,"activity call":"active"}
{"target":"NRK","technical replicate":"3","viability, normalised (%)":78.2,"activity call":"active"}
{"target":"KAT2A","technical replicate":"1","viability, normalised (%)":75,"activity call":"active"}
{"target":"KAT2A","technical replicate":"2","viability, normalised (%)":79.3,"activity call":"active"}
{"target":"KAT2A","technical replicate":"3","viability, normalised (%)":58.6,"activity call":"active"}
{"target":"NPR1","technical replicate":"1","viability, normalised (%)":95.1,"activity call":"inactive"}
{"target":"NPR1","technical replicate":"2","viability, normalised (%)":89.5,"activity call":"inactive"}
{"target":"NPR1","technical replicate":"3","viability, normalised (%)":92.6,"activity call":"inactive"}
{"target":"NME7","technical replicate":"1","viability, normalised (%)":80.3,"activity call":"inactive"}
{"target":"NME7","technical replicate":"1","viability, normalised (%)":71.1,"activity call":"active"}
{"target":"NME7","technical replicate":"2","viability, normalised (%)":78.3,"activity call":"active"}
{"target":"NME7","technical replicate":"2","viability, normalised (%)":69.5,"activity call":"active"}
{"target":"NME7","technical replicate":"3","viability, normalised (%)":77,"activity call":"active"}
{"target":"NME7","technical replicate":"3","viability, normalised (%)":58.6,"activity call":"active"}
